Reference: patent US20230338467A1

Chains of the proteins cited; added tags and fusions are not shown. Lines headed by an entry give the natural chain unless they say otherwise; changes in a name come on top.
UniProt P15692: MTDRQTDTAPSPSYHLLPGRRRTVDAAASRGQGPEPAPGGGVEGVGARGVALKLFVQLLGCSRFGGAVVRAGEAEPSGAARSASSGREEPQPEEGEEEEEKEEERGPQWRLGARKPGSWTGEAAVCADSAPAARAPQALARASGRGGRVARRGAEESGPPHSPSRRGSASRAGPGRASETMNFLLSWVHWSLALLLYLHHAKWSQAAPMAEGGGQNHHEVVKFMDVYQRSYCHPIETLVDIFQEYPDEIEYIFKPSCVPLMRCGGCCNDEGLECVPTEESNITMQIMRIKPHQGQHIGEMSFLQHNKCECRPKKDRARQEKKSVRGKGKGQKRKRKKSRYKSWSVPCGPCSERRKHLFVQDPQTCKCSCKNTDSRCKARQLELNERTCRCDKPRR

What was measured:
VEGF-A [1] = molecular target: VEGF-A (UniProt P15692); experiment: co-IP in endothelial cells and IVTT (figure legend)
VEGF-A [2] = molecular target: VEGF-A (UniProt P15692); experiment: co-immunoprecipitation in endothelial cells (FIG. 7A)
VEGF-A [3] = molecular target: VEGF-A (UniProt P15692); experiment: in vitro transcription-translation coupled co-IP immunoblot assay (IVTT) (FIG. 7B)

- binding (VEGF-A [1]): binds
- binding (VEGF-A [2]): binds
- binding (VEGF-A [3]): binds
B1: Fat Specific Protein 27 (FSP27) (protein, UniProt Q96AQ7 1-238, looked up)
chain: MEYAMKSLSLLYPKSLSRHVSVRTSVVTQQLLSEPSPKAPRARPCRVSTADRSVRKGIMAYSLEDLLLKVRDTLMLADKPFFLVLEEDGTTVETEEYFQALAGDTVFMVLQKGQKWQPPSEQGTRHPLSLSHKPAKKIDVARVTFDLYKLNPQDFIGCLNVKATFYDTYSLSYDLHCCGAKRIMKEAFRWALFSMQATGHVLLGTSCYLQQLLDATEEGQPPKGKASSLIPTCLKILQ

These are yes or no findings as the source states them, for the method shown. In cells and extracts the contact can be indirect. A result given as binding can be weak or reduced; the word gives no strength.
